Our source for the crude mass and isolated mass values is patent US20120269834A1 (priority 2010, published 2012).

Plain letter strings leave the end groups untold.

This data set is described as follows: general procedure: Fmoc solid-phase peptide synthesis; Fmoc-Glu(OtBu)-Wang Resin; FastMoc chemistry. The conditions noted are these: whole synthesis, scale 0.25 mmol.

Regarding “CTSPPSPSPAPE (conjugated to KLH; Peptide immunogen based on Strep pyrognes cleavage of human IgG1)”, the crude mass entry is given as “Approximately 190 mg” and the isolated mass is reported as 38 mg.
